Earlier results in PMC6034060, “Enantioselective pharmacokinetics of tramadol and its three main metabolites; impact of CYP2D6, CYP2B6, and CYP3A4 genotype” (Pharmacology Research & Perspectives, 2018).

Test system: noradrenaline reuptake
Conditions: comparison of the tramadol enantiomers; cited from earlier work

COc1cccc(C2(O)CCCCC2CN(C)C)c1 (stereo not drawn) [(−)‐tramadol, reference compound]
Inhibition of noradrenaline reuptake: preferentially inhibits noradrenaline reuptake
